We go through 2 substances from publication doi:10.1101/2025.06.14.659623.

By UniProt entry, the sequences of proteins in these tests, tags left out. Residues count along the entry.
UniProt Q6DV88, residues 2507-3411: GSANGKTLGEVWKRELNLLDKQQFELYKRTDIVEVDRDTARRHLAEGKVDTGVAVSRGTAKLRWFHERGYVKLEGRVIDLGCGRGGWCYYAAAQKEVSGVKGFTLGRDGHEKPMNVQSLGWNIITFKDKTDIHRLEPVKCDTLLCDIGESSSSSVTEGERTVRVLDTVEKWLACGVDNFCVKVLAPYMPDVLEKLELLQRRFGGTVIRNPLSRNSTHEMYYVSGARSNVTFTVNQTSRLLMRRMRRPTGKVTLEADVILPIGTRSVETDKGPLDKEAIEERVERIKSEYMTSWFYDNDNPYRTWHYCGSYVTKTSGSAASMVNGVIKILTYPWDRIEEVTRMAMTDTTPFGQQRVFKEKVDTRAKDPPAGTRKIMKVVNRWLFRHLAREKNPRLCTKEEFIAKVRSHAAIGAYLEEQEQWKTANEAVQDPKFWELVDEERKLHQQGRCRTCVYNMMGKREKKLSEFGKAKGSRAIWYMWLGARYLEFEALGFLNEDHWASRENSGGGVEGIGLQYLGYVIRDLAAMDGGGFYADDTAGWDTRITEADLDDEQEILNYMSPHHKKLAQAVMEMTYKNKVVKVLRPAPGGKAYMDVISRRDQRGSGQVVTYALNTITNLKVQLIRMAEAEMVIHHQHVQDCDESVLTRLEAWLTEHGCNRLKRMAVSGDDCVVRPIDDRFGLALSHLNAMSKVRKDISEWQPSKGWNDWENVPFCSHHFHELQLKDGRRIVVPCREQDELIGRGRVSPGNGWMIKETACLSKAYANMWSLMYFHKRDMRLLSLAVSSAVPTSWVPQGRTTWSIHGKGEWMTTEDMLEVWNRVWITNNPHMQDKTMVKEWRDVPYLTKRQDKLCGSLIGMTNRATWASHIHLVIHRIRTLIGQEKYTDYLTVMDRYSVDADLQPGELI
UniProt Q7Z6E9: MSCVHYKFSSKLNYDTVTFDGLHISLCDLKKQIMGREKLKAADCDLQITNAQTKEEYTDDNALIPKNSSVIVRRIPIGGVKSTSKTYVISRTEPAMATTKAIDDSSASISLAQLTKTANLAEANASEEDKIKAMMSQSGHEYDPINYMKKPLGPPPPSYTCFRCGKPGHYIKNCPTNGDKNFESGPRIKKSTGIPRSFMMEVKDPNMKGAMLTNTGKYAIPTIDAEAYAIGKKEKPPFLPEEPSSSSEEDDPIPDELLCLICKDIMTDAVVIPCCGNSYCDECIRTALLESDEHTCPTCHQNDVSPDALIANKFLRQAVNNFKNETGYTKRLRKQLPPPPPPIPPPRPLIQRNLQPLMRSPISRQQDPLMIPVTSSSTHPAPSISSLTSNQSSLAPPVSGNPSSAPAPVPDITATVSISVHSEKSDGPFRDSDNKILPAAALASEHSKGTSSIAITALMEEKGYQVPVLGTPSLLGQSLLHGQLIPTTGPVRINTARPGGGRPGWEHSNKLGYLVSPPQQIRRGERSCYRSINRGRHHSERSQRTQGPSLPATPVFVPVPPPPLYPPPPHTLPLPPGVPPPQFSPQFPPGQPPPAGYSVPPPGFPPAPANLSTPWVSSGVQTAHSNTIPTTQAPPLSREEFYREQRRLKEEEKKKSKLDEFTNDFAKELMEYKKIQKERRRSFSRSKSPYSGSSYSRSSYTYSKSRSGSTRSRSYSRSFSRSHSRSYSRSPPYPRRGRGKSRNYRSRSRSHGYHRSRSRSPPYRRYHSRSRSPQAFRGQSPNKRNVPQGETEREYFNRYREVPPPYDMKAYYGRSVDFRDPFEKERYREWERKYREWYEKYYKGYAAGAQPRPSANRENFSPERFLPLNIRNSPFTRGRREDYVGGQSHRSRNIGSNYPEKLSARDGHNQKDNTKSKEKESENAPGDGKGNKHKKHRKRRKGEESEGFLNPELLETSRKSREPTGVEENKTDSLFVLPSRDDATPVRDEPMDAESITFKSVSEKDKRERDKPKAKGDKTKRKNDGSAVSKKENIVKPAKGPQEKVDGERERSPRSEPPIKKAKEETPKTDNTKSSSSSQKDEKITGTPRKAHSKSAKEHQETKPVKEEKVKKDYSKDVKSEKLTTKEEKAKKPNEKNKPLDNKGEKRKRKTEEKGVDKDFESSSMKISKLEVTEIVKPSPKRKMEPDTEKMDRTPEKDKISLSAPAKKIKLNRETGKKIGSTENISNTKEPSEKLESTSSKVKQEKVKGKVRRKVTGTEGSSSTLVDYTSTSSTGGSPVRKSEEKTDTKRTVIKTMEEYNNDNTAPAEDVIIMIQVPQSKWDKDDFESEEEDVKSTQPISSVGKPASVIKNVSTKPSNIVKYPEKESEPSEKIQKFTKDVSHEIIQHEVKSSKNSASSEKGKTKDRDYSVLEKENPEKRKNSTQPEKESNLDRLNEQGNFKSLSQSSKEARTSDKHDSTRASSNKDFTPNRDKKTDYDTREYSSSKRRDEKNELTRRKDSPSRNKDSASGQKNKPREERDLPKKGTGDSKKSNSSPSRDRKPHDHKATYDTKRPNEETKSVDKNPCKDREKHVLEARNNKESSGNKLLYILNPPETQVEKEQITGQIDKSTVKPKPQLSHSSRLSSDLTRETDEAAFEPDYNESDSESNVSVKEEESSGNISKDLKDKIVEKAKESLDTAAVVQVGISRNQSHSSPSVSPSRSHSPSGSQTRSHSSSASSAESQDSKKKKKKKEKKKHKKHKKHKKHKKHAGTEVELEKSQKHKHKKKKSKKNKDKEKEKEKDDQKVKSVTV
UniProt P03314, residues 2507-3411: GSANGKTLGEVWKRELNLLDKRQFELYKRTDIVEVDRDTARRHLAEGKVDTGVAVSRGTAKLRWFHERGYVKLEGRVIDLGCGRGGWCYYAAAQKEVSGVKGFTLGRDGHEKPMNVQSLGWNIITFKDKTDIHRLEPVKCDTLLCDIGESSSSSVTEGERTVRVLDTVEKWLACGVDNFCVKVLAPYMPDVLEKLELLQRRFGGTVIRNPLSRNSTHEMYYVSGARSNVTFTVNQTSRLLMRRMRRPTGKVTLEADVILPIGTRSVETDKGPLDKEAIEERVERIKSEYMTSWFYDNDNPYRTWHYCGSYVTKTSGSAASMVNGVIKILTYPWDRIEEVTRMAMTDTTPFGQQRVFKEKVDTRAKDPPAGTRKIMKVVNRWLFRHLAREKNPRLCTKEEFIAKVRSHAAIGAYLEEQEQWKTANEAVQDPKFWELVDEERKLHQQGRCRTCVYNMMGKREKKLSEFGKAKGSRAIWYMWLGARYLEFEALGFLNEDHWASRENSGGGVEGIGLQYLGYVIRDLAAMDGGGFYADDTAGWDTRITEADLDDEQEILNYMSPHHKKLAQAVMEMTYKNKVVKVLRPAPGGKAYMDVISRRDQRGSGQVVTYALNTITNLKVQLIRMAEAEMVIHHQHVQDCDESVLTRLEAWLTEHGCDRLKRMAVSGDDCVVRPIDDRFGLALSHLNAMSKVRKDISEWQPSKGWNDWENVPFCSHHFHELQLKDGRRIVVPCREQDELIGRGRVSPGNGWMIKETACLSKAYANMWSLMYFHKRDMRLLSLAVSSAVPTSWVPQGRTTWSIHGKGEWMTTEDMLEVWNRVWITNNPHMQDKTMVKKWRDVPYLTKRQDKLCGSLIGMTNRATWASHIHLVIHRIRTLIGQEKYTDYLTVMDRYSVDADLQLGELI

No constants are given. Whether binding was seen depends on the method and setting. In cells and extracts the contact can be indirect. Some entries that bind do so weakly or less than the wild type.

Experiment [1] concerns the target YFV-Asibi NS5 with C-terminal 2xStrep II affinity tag (yellow fever virus, strain Asibi) (UniProt Q6DV88). The experiment in a line: co-IP.
In experiment [2] the target is RBBP6 (retinoblastoma binding protein 6), endogenous in Huh7 (human (endogenous in Huh7)) (UniProt Q7Z6E9). The experiment in a line: co-IP.

In the case of “RBBP6 as detected in the Strep-AP of NS5 truncations (Figure 3H) (from UniProt Q7Z6E9 1-1792)”, the binding entry in experiment [1] was “binds”.

As to “YFV-17D NS5 made in infected cells (from UniProt P03314) (enzyme)”, the binding entry in experiment [2] is “binds”.
